Sequences of proteins named here, by UniProt entry; tags and fusion partners are left off.
UniProt P35637: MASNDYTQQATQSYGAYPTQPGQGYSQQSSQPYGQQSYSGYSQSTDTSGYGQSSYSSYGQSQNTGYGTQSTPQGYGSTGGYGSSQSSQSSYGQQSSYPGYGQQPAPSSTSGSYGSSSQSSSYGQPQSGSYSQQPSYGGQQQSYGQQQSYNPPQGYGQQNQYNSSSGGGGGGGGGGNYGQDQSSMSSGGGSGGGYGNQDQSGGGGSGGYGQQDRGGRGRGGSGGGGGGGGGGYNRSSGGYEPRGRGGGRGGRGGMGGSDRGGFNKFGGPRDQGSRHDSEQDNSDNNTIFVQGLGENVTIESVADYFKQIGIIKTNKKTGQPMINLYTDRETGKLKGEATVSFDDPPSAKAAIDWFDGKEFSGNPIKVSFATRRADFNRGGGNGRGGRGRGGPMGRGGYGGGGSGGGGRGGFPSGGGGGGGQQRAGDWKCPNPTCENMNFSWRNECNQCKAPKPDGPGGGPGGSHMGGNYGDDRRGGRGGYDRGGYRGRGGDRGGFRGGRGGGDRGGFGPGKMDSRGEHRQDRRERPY
UniProt O00571: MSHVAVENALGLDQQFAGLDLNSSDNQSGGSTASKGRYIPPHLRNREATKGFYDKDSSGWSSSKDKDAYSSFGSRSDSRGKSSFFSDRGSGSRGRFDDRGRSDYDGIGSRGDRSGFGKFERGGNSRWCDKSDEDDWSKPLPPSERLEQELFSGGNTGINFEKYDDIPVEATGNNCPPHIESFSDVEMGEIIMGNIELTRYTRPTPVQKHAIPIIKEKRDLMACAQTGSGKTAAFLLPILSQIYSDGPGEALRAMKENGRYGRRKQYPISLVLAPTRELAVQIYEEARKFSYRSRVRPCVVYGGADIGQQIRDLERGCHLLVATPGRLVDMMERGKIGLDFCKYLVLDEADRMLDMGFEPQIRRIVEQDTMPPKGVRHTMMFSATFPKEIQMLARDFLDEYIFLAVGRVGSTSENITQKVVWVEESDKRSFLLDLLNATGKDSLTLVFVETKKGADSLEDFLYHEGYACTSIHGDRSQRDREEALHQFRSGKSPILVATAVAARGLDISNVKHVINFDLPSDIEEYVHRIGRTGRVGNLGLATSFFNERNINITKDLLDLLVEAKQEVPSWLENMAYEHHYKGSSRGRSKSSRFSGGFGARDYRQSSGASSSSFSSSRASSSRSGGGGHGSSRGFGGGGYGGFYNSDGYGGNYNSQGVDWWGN

In publication doi:10.1101/2022.02.18.480778:

Molecular target: Shiftless (SHFL, C19ORF66), endogenous in iSLK.WT cells (human (endogenous in iSLK.WT)) (UniProt Q9NUL5)
Assay: affinity purification with mass spectrometry

Row | binding | Substance
1 | binds | FUS (from UniProt P35637 1-526)
2 | binds | HNRNPK (from UniProt P61978 1-463)
3 | binds | cytoplasmic poly(A) binding protein 1 (PABPC1) (from UniProt P11940 1-636)
4 | binds | DDX3X (from UniProt O00571 1-662)

No constants are given. Whether binding was seen depends on the method and setting. Binding seen in cells or lysates may run through a third protein. A yes stands for co-enrichment or nearness to the bait. Other partners may have been found.
